Experimental data reported in paper PMC10932545.

Amino acid sequences for entries named in this document (tags omitted).
UniProt Q9JMB7: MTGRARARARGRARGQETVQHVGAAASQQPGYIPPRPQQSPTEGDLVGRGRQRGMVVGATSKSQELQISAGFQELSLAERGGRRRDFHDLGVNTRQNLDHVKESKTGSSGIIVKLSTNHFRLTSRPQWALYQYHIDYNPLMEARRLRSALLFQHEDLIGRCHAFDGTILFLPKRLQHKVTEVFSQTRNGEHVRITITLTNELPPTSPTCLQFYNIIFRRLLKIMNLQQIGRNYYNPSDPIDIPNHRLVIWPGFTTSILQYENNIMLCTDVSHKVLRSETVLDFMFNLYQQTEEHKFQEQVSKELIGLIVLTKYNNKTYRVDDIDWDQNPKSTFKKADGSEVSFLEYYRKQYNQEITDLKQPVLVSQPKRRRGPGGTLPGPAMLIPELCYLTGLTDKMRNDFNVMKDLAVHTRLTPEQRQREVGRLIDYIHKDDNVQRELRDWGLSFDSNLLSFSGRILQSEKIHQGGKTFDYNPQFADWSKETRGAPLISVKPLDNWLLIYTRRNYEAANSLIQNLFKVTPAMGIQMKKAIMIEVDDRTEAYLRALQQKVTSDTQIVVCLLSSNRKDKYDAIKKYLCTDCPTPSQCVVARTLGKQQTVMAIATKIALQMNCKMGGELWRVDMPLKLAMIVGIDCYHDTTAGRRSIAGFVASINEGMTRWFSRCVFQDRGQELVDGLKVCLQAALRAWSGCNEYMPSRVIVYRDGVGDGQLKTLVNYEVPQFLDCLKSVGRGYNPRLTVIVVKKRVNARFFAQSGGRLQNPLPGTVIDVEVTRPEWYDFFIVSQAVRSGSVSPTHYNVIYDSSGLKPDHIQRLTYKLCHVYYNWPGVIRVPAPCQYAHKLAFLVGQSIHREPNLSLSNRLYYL
UniProt Q62093: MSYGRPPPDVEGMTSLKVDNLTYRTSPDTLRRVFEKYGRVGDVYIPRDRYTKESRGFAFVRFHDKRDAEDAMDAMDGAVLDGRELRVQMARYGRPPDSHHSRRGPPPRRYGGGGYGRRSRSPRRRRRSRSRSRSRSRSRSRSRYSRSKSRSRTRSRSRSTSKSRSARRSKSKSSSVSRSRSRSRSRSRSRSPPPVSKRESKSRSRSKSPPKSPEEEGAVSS

T1: FBXO24-HA (FBXO24 with a C-terminal HA epitope tag, from Fbxo24-HA-tagged transgenic mice) (mouse) (UniProt Q9D417)
T1 sequence: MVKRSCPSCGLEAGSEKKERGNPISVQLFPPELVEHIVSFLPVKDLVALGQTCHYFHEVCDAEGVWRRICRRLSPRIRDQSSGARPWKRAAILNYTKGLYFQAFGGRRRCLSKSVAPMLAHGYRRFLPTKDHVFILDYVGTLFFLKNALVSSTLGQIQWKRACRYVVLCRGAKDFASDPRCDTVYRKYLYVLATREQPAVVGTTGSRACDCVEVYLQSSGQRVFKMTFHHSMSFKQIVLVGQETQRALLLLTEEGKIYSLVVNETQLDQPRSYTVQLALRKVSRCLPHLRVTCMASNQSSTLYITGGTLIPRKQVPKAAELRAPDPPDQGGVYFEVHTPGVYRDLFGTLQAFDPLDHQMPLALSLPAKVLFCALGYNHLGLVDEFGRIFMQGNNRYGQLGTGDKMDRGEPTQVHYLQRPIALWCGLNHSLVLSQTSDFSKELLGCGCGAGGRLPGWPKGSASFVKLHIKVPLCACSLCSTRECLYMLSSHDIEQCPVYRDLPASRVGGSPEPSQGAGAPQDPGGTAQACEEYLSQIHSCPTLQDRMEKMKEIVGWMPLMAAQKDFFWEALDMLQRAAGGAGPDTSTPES

B1: SRSF3 (protein, UniProt P84104 1-164)
chain: MHRDSCPLDCKVYVGNLGNNGNKTELERAFGYYGPLRSVWVARNPPGFAFVEFEDPRDAADAVRELDGRTLCGCRVRVELSNGEKRSRNRGPPPSWGRRPRDDYRRRSPPPRRRSPRRRSFSRSRSRSLSRDRRRERSLSRERNHKPSRSFSRSRSRSRSNERK

Key:
[1] = target: T1, FBXO24-HA (FBXO24 with a C-terminal HA epitope tag, from Fbxo24-HA-tagged transgenic mice) (mouse); test: affinity purification with mass spectrometry; IP-MS with the HA antibody from testes (FBXO24-HA as bait)
[2] = target: T1, FBXO24-HA (FBXO24 with a C-terminal HA epitope tag, from Fbxo24-HA-tagged transgenic mice) (mouse); test: as above; remark: listed apart in the source

Molecule | binding [1] | binding [2]
MIWI (from UniProt Q9JMB7 1-862) | binds | –
SRSF2 (from UniProt Q62093 1-221) | binds | –
B1 | – | binds

Where two headings read alike, the source gives them in different places. Results are given in words; binding and its absence hold for the method and conditions named. In cells and extracts the contact can be indirect. A yes stands for co-enrichment or nearness to the bait. Other partners may have been found. Tags and fused reporters may be left off the sequences shown.
